Measurements from “University of Dundee, Small-Polar-MMV Screening Library” (2021), ChEMBL document CHEMBL3988442.

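Whole-cell assay for inhibitors of Mycobacterium tuberculosis growth, labelled Cornell in the record; the read-out is not stated. The concentration is filed as 10 mM, unlikely as a test dose, so the dose is not known. Higher means stronger inhibition (inferred from two other growth screens of the library). Of about 53,000 compounds tested this way, about 900 (1.7%) reached 50% or more in at least one test.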

Results are given as percent effect.
How 0% and 100% were set is not recorded. Most values in the screen are low, and negative values occur.
Compounds were drawn at random from those tested, without regard to their results.

Compound	effect
Cc1sc(NS(=O)(=O)c2ccccc2)nc1C(=O)NC1CC1	20.63%
CC1CCN(c2ccc(=O)n(CC(=O)NCCc3ccccc3)n2)CC1	45.57%
COCC1c2c(cnn2C)CCN1Cc1ccsc1 (configuration not stated)	24.96%
CCN(Cc1ccco1)C(=O)c1cc(OC)c2c(c1)OCCO2	11.52%
Cc1cc(C)n(CCNc2ncnc3c2NC(=O)CN3)n1	18.99%
CSc1nccc(N2CCC(=O)N(CC3CC3)C(C(C)C)C2)n1 (configuration not stated)	-5.533%
O=C(O)C(F)(F)F.[H][C@]12CC[C@@]3(N=C(C)N(CC4CC4)C3=O)[C@@]1([H])CN(Cc1ccccc1F)C2	14.33%
O=C1OCCC1N1CCN(C(=O)Cc2c[nH]c3ccccc23)CC1 (configuration not stated)	7.295%
[H][C@@]12COC[C@]1(COCc1cccnc1)CN(C(=O)CCOC)C2	6.618%
Cc1nc(CN2CCCC(C)(CO)C2)no1 (configuration not stated)	13.58%
O=C1CC(N2CCN(c3ccccc3O)CC2)C(=O)N1Cc1cccs1 (configuration not stated)	63.35%
CN(C)[C@@H]1CCN(c2ncccn2)[C@H]1Cc1ccccc1	21.01%
NC(=O)c1ccc(NC(=O)Cn2cc(I)cn2)cc1	12.21%
CCN(c1ccsc1C(=O)N1CCC(C)CC1)S(=O)(=O)c1ccccc1	2.832%
COCCN1C(=O)C2(CCC(C(=O)Nc3ccc(C)cc3)CC2)N=C1C (configuration not stated)	-53.01%
O=C(NCC1CCOC1)c1ccc(OCC(F)(F)F)nc1 (configuration not stated)	12.43%
Cc1ccc(N2Cc3nc(=O)[nH]n3C2=O)cc1	-15.71%
Cc1occc1C(=O)N1CCC[C@]2(C[C@@H](OCc3ccccn3)CO2)C1.O=C(O)C(F)(F)F	21.67%
Cc1csc(CNC(=O)N(C)Cc2ccc([S+](C)[O-])cc2)n1 (configuration not stated)	-14.12%
CN1C(=O)C2(CC(=O)Nc3[nH]ncc32)c2cc(F)ccc21 (configuration not stated)	1.042%
Cc1cc(S(=O)(=O)N2CCCc3ccccc32)sc1C(=O)O	15.62%
CCN(CCNC(=O)C1CCN(C(C)=O)CC1)c1ccccc1C	3.904%
CC(c1cccc(-c2ncc(C#N)c(N)n2)c1)N(C)C (configuration not stated)	14.48%
Cc1cc(N2CCC(c3n[nH]c4nccnc34)CC2)ncn1	-38.83%
[H][C@@]12CCN(S(=O)(=O)C3CC3)[C@]1([H])CCC(=O)N2CC1CC1	-34.18%
O=C(O)C(F)(F)F.c1ccc(Cn2cc3c(n2)C(COCC2CC2)OCC3)nc1 (configuration not stated)	-13.41%
Cn1c(C(F)(F)F)nn(CCNC(=O)c2nc3ccccc3s2)c1=O	15.57%
Cc1ccc(NC(=O)NCC2(N3CCOCC3)CCSC2)c(C)c1 (configuration not stated)	0.5585%
[H][C@]12CN(C(=O)c3cc(C)n(C)c3C)CC[C@@]1(O)CCN(S(C)(=O)=O)C2	-22.82%
CCN(CC)S(=O)(=O)N1CCCC1c1cccc(Nc2ncc(C)s2)n1 (configuration not stated)	2.482%
CCCN1CCCCCC1Cc1c(C(=O)NC)sc2ccccc12 (configuration not stated)	-41.73%
O=C(O)C(F)(F)F.[H][C@@]12CN(C(=O)c3cccnc3)C[C@]1([H])CN(c1cc(OC)ncn1)C2	12.94%
CC1(c2ccccc2)CCC(=O)N(CCN2CCOC2=O)C1 (configuration not stated)	19.1%
CCn1cc(-c2cncn2CCc2ccc3c(c2)OCCO3)cn1.Cl	-35.45%
Cc1c(C(=O)N2CCCOCC2)nnn1-c1cccc2cnccc12	19.58%
Cc1ccccc1C(NC(=O)Cn1cc(C2CC2)nn1)C1CC1 (configuration not stated)	-5.457%
CN1CCCC(Cc2nccnc2Cl)CC1 (configuration not stated)	19.79%
O=C(CCc1ccccn1)N1CCc2cc(Cl)cc(Cl)c2C1	-20.14%
COc1cc(C(=O)NC(CC(=O)O)c2cccs2)cc(OC)c1C (configuration not stated)	23.06%
CCOC(=O)N1CCN(C(=O)c2ccc3ccn(C)c3c2)CC1	-1.51%
COCc1cc(NCCc2ccc(S(N)(=O)=O)cc2)n2nccc2n1	5.459%
[H][C@@]12CCN(C(C)=O)C[C@]1(C(=O)NCc1ccco1)CCO2	25.46%
CCOc1ccc(C2CC(=O)NCc3nc(N)sc32)cc1CO (configuration not stated)	-3.884%
O=C(O)C(F)(F)F.[H][C@]12CCCC(N(C)Cc3cccs3)[C@@]1([H])CN(C(=O)c1cnoc1C)C2 (some centres not stated)	1.262%
Cc1ccc(-c2nc(CC(=O)N3CCCC(NC(=O)C(C)C)C3)cs2)o1 (configuration not stated)	13.23%
Cc1cnn(C2CCCN(C(=O)CCNS(C)(=O)=O)C2)c1 (configuration not stated)	-23.71%
O=C(O)C(F)(F)F.[H][C@@]12CCN(CC(=O)N(C)C)C(=O)[C@@]1([H])CN(c1ncc(C)cn1)C2	-9.811%
CCOc1ccnc(N2CCN(C(=O)c3cc(Cl)c[nH]3)CC2)n1	26.58%
O=S(=O)(NCCNc1cc(-n2cccc2)ncn1)c1cccs1	51.47%
Cc1cc(F)c(S(=O)(=O)NCCCN2CCC(O)CC2)cc1F	-13.99%
O=C(Nc1ccccc1)c1ccc(NCc2nccs2)nn1	40.64%
CCNS(=O)(=O)c1ccc(C)c(C(=O)N(C)Cc2ccccc2C)c1	-4.021%
N#Cc1ncn(Cc2c(F)cccc2Cl)n1	3.788%
[H][C@@]12CS(=O)(=O)C[C@]1([H])N(C(=O)c1ncoc1C)CCN2Cc1ccccc1	18.83%
CN(C)C(=O)N1CCn2nc(CNC(=O)CCc3ccccn3)cc2C1	-17.96%
O=C(NCCCOCC1CCCO1)c1cccnc1N1CCCC1 (configuration not stated)	105.2%
Cc1ncsc1CN1CCN(C)C2(CCC(=O)N(CCO)CC2)C1 (configuration not stated)	-22.08%
c1cnc(NCc2n[nH]c3c2CCN(Cc2ccncc2)C3)nc1	17.71%
CC(CC(=O)Nc1ncn(CC(=O)N2CCCCCC2)n1)C1CC1 (configuration not stated)	1.479%
[H][C@@]12CN(C(C)=O)C[C@]1(C(=O)N(C)C)CCC21CCN(S(C)(=O)=O)CC1	-1.429%
Cc1occc1C(=O)N1CCCC(C2=Nc3ccccc3S(=O)(=O)N2)C1 (configuration not stated)	60.62%
O=C(O)C(F)(F)F.[H][C@]12CC[C@@]3(N=C(CC)N(CC)C3=O)[C@@]1([H])CN(Cc1ccccc1F)C2	34.56%
O=C(O)C(F)(F)F.[H][C@@]12CCN(C(=O)c3cscn3)[C@@]1([H])CCN2CC1CCOC1 (some centres not stated)	15.89%
CC(CS(C)(=O)=O)NC(=O)N1CC2(CCCC2)c2ccccc21 (configuration not stated)	25.82%
O=C(c1cccc2[nH]ncc12)N1CCCC1c1noc(C2CC2)n1 (configuration not stated)	0.6634%
[H][C@]12CC[C@@]3(N=C(CC)N(CC)C3=O)[C@@]1([H])CN(S(=O)(=O)CC)C2	8.503%
CN(CC(F)(F)F)C(=O)c1ccc(F)c(NS(C)(=O)=O)c1	3.445%
CCOCC(=O)N1Cc2[nH]nc(COCC3CC3)c2C1.O=C(O)C(F)(F)F	-28.1%
NC(=O)C1CCN(CC(=O)NCCn2cc(Cl)cn2)CC1	-10.63%
O=S1(=O)CCC(n2nc(Cc3cccs3)nc2-c2cnccn2)C1 (configuration not stated)	12.67%
Cn1ccnc1COc1ccc(CO)cc1	-3.887%
COc1ccc(CNC(Cc2ccsc2)c2ncccc2C)cc1OC (configuration not stated)	17.01%
O=C(CCc1ccco1)NS(=O)(=O)Cc1ccon1	35.89%
Cn1cc(C2COC3(CCN(C(=O)c4cccc(O)c4)CC3)C2)cn1 (configuration not stated)	26.51%
Cc1cc(C)n(CC2(CNC(=O)C(c3ccccc3F)N(C)C)CC2)n1 (configuration not stated)	10.29%
CN(C)c1ccc(C(=O)N2CCN(C(=O)N3CCCCC3)CC2)nn1	-48.05%
CCCC1CCCN(C(=O)CNC(=O)c2ccoc2C)CC1 (configuration not stated)	13.58%
O=C(O)C(F)(F)F.[H][C@]12CCN(C(=O)C3CCCO3)[C@@]1([H])CCC(=O)N2Cc1cccnc1 (some centres not stated)	7.889%
NC(=O)CNC1(c2ccc(Cl)cc2)CCCC1	11.95%
COCCc1noc(CN2CCCc3cccc(OC)c32)n1	49.27%
CC(C)C(C(=O)N(C)C)c1cccc(Cl)c1 (configuration not stated)	-8.131%
COCc1noc(C2(c3ccc(F)cc3)CC2)n1	-63%